Results from US20220073617A1.
No constants are given. Whether binding was seen depends on the method and setting. Some entries that bind do so weakly or less than the wild type. Where a sequence is shown, tags or fusion partners need not be part of it.

Assays:
Experiment in all cases: BLI
[1] = biological target: T1, human VISTA-Fc H2A mutant (histidines 153-155 replaced by alanine) (human) (UniProt Q9H7M9)
T1 sequence: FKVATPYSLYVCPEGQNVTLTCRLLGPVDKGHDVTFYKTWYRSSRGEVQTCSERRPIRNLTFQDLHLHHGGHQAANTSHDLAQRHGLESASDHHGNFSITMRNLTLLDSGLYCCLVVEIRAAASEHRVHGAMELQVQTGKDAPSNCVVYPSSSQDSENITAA

[2] = biological target: T2, human VISTA-Fc H2D mutant (histidines 153-155 replaced by aspartic acid) (human) (UniProt Q9H7M9)
T2 sequence: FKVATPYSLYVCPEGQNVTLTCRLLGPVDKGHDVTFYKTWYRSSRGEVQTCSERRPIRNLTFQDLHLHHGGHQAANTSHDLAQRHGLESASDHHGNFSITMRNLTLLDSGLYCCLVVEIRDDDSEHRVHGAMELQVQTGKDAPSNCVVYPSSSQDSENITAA

[3] = biological target: T3, human VISTA-Fc H2R mutant (histidines 153-155 replaced by arginine) (human) (UniProt Q9H7M9)
T3 sequence: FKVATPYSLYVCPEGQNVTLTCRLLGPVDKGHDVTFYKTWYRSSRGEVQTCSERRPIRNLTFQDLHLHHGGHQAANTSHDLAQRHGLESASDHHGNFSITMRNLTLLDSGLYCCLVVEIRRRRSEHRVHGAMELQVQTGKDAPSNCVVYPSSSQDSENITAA

Measured: binding

B1: VISTA.5 (VISTA antibody 1, non-blocking antibody) (antibody, V domains shown)
VH: AVQLQESGPGLVRPSQSLSLTCTVTDYSITSDYAWNWIRQFPGSKLEWLGFIGYSGNTNYNPSLESRISITRHTSKNQFFLHLNSMTTEDTATYYCARSLYGGSHWYFDVWGAGTTVTVSS
VL: DIVLTQSPASLAVSLGQRATISCRGSESVEYYGTILMQWYQQKPGQPPKLLIYGASNVESGVPARFSGSGSGTDFSLNIHPVEEDDIAMYFCQQSRKVPWTFGGGTKLEIK
binds: all assays above
